Reference: US10420728B2, “Tablet and method of preparing the same” (Boryung Pharmaceutical Co., Ltd, priority 2015, dated 2019)
At least one structure is not confirmed: it was looked up by name or label, or the drawing left a doubt.

Test: Particle size distribution by laser diffraction particle size analyzer (Sympatec, HELOS system)
Format: physicochemical
Settings: fimasartan potassium trihydrate particles of Preparation Examples; for D50: particle diameter at 50% (v/v) in the cumulative distribution; for D90: particle diameter at 90% (v/v) in the cumulative distribution

Row | SMILES | D50 [μm] | D90 [μm]
1 | CCCCc1nc(C)c(CC(=S)N(C)C)c(=O)n1Cc1ccc(-c2ccccc2-c2nnn[nH]2)cc1 [Preparation Example 1, fimasartan potassium trihydrate] | 1.7 | 5.0
2 | CCCCc1nc(C)c(CC(=S)N(C)C)c(=O)n1Cc1ccc(-c2ccccc2-c2nnn[nH]2)cc1 [Preparation Example 2, fimasartan potassium trihydrate] | 2.9 | 11.2
3 | CCCCc1nc(C)c(CC(=S)N(C)C)c(=O)n1Cc1ccc(-c2ccccc2-c2nnn[nH]2)cc1 [Preparation Example 3, fimasartan potassium trihydrate] | 3.7 | 11.4
4 | CCCCc1nc(C)c(CC(=S)N(C)C)c(=O)n1Cc1ccc(-c2ccccc2-c2nnn[nH]2)cc1 [Preparation Example 4, fimasartan potassium trihydrate] | 5.3 | 13.6
5 | CCCCc1nc(C)c(CC(=S)N(C)C)c(=O)n1Cc1ccc(-c2ccccc2-c2nnn[nH]2)cc1 [Preparation Example 5, fimasartan potassium trihydrate] | 7.3 | 22.6
6 | CCCCc1nc(C)c(CC(=S)N(C)C)c(=O)n1Cc1ccc(-c2ccccc2-c2nnn[nH]2)cc1 [Preparation Example 6, fimasartan potassium trihydrate] | 12.1 | 37.3
7 | CCCCc1nc(C)c(CC(=S)N(C)C)c(=O)n1Cc1ccc(-c2ccccc2-c2nnn[nH]2)cc1 [Preparation Example 7, fimasartan potassium trihydrate] | 15.2 | 69.0
8 | CCCCc1nc(C)c(CC(=S)N(C)C)c(=O)n1Cc1ccc(-c2ccccc2-c2nnn[nH]2)cc1 [Preparation Example 8, fimasartan potassium trihydrate] | 37.8 | 134.96
